Laboratory results as given in paper PMC7911045.
These are yes or no findings as the source states them, for the method shown. For some of these results: Sequences can lack the tags named with a protein.

Amino acid sequences for entries named in this document (tags omitted). Residues count along the entry.
UniProt Q9NWS0, residues 51-174: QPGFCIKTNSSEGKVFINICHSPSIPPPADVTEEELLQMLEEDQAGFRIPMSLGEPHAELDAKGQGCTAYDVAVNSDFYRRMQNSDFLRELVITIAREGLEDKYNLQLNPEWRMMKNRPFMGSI
UniProt P0DM59: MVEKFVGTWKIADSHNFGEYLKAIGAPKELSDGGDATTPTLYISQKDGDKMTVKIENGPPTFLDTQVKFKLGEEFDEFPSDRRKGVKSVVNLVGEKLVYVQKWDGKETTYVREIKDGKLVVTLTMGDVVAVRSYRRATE
UniProt P22301, residues 19-178: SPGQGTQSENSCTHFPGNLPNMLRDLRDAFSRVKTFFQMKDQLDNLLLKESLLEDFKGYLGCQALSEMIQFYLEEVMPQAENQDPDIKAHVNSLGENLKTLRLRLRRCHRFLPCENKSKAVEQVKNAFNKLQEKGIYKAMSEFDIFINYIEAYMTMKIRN

Assays:
[1] = molecular target: 4PSF wild type protein (PIH1D1 N-terminal domain) with N-terminal His-tag (human) (UniProt Q9NWS0); experiment: dynamic light scattering; purified scaffold candidates with N-terminal His-tags after size exclusion chromatography; ZetaSizer Nano ZS90; intensity-based particle size distribution; both purified
[2] = molecular target: Fluorescent protein UnaG wild type with N-terminal His-tag (Anguilla japonica) (UniProt P0DM59); experiment: as above
[3] = molecular target: interleukin-10 (human) (UniProt P22301); experiment: MST; IL-10 labelled on its C-terminal His-tag (RED-tris-NTA), titrated by ProBi variants; 50 mM Tris pH 8.0, 300 mM NaCl, 0.1% Pluronic F-127; 10 min at room temperature; Monolith NT.115, medium MST power, 60% LED; both purified
[4] = molecular target: Alpha-X beta2 integrin I domain with N-terminal His-tag (human) (UniProt P20702); experiment: dynamic light scattering; purified scaffold candidates with N-terminal His-tags after size exclusion chromatography; ZetaSizer Nano ZS90; intensity-based particle size distribution; both purified

“4PSF wild type protein (PIH1D1 N-terminal domain) with N-terminal His-tag (from UniProt Q9NWS0 51-174) (domain or fragment)” was tested, and the binding [1] was “no binding”.

“Fluorescent protein UnaG wild type with N-terminal His-tag (from UniProt P0DM59 1-139)” was tested, and the binding [2] was “no binding”.

For “ProBi-WT protein scaffold (from UniProt Q9NWS0 51-174) (domain or fragment)”, the binding [3] was “no binding”.

B1: Alpha-X beta2 integrin I domain with N-terminal His-tag (domain or fragment, UniProt P20702 147-338)
chain: RQEQDIVFLIDGSGSISSRNFATMMNFVRAVISQFQRPSTQFSLMQFSNKFQTHFTFEEFRRSSNPLSLLASVHQLQGFTYTATAIQNVVHRLFHASYGARRDAAKILIVITDGKKEGDSLDYKDVIPMADAAGIIRYAIGVGLAFQNRNSWKELNDIASKPSQEHIFKVEDFDALKDIQNQLKEKIFAIEG
For B1, the binding [4] was “no binding”.
